This is one part of the list.

Sequences of proteins named here, by UniProt entry; tags and fusion partners are left off. A change or cut given only in a name is not applied to a line headed by its entry.
UniProt P49815: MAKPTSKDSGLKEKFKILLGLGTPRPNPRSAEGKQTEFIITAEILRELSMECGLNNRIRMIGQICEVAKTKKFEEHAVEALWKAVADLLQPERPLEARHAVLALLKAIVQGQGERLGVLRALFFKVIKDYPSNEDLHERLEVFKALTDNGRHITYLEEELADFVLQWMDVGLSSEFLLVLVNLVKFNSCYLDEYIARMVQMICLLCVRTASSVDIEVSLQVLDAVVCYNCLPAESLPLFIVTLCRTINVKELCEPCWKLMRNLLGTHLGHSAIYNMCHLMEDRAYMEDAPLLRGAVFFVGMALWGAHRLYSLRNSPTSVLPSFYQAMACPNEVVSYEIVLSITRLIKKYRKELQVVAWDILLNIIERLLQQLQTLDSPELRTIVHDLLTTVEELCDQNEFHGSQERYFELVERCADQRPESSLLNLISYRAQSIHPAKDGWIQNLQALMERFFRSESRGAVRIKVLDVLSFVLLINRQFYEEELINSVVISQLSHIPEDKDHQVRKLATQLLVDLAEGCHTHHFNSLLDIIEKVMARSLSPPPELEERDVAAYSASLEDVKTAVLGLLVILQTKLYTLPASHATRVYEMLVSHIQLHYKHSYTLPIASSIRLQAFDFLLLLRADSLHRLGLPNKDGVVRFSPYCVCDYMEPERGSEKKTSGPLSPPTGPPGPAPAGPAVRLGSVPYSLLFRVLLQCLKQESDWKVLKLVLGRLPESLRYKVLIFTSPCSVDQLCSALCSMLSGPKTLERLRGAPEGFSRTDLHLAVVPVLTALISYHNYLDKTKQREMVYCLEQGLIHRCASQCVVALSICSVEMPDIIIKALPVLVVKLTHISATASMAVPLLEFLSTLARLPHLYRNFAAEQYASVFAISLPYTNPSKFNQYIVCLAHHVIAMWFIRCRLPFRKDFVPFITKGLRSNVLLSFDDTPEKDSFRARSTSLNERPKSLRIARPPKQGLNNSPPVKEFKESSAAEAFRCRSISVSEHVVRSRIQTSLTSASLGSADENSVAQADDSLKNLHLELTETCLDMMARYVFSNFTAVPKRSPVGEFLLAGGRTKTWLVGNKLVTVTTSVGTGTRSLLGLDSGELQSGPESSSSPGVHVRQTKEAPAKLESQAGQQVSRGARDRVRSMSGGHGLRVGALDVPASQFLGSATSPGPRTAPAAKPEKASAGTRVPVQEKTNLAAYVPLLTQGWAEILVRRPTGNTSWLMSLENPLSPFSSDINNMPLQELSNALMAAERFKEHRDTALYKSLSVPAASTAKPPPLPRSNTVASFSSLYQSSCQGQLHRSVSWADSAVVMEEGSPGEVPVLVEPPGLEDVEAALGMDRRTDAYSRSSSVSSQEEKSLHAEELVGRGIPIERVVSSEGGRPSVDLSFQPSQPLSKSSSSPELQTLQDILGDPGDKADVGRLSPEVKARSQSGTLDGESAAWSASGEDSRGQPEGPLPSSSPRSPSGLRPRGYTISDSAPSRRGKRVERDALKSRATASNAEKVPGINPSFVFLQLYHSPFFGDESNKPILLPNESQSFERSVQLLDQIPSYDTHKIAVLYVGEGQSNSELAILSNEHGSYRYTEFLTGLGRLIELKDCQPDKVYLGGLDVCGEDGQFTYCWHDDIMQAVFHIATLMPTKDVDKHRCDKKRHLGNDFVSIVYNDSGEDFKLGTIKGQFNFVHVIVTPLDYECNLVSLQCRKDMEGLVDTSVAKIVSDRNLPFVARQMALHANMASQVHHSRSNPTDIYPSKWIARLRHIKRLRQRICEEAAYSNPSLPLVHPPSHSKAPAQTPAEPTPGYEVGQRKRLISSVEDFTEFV
UniProt O43399: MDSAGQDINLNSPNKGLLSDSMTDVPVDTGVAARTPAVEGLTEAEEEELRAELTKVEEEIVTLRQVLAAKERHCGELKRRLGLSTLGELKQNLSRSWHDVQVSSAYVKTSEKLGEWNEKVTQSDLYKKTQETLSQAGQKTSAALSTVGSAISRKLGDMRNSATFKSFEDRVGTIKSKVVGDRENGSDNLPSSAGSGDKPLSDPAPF
UniProt Q14134: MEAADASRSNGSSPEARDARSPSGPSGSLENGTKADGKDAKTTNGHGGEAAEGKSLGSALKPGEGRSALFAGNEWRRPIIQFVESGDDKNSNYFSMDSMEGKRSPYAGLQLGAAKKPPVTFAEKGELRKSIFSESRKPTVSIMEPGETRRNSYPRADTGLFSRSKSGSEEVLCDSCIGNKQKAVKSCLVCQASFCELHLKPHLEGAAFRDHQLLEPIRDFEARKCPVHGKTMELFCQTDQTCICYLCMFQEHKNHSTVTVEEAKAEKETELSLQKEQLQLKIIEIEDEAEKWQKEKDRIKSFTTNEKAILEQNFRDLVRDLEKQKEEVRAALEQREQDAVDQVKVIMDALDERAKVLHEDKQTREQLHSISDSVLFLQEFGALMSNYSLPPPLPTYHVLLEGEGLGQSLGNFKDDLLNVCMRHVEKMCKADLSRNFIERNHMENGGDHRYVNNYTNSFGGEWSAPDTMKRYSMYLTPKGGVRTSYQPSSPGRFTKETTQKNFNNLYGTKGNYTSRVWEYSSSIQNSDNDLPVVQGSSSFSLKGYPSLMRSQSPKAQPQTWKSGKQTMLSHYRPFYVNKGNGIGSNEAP
UniProt Q9H496: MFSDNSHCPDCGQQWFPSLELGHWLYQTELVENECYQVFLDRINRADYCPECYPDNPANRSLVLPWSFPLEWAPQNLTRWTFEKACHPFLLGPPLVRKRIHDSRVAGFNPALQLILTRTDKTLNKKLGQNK
UniProt O75865, whole entry, looked up: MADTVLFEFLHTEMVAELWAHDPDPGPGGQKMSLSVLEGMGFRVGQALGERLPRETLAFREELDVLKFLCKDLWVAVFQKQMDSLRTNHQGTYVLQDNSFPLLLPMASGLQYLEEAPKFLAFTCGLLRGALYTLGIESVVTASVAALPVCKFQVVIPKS
UniProt Q8NDV7: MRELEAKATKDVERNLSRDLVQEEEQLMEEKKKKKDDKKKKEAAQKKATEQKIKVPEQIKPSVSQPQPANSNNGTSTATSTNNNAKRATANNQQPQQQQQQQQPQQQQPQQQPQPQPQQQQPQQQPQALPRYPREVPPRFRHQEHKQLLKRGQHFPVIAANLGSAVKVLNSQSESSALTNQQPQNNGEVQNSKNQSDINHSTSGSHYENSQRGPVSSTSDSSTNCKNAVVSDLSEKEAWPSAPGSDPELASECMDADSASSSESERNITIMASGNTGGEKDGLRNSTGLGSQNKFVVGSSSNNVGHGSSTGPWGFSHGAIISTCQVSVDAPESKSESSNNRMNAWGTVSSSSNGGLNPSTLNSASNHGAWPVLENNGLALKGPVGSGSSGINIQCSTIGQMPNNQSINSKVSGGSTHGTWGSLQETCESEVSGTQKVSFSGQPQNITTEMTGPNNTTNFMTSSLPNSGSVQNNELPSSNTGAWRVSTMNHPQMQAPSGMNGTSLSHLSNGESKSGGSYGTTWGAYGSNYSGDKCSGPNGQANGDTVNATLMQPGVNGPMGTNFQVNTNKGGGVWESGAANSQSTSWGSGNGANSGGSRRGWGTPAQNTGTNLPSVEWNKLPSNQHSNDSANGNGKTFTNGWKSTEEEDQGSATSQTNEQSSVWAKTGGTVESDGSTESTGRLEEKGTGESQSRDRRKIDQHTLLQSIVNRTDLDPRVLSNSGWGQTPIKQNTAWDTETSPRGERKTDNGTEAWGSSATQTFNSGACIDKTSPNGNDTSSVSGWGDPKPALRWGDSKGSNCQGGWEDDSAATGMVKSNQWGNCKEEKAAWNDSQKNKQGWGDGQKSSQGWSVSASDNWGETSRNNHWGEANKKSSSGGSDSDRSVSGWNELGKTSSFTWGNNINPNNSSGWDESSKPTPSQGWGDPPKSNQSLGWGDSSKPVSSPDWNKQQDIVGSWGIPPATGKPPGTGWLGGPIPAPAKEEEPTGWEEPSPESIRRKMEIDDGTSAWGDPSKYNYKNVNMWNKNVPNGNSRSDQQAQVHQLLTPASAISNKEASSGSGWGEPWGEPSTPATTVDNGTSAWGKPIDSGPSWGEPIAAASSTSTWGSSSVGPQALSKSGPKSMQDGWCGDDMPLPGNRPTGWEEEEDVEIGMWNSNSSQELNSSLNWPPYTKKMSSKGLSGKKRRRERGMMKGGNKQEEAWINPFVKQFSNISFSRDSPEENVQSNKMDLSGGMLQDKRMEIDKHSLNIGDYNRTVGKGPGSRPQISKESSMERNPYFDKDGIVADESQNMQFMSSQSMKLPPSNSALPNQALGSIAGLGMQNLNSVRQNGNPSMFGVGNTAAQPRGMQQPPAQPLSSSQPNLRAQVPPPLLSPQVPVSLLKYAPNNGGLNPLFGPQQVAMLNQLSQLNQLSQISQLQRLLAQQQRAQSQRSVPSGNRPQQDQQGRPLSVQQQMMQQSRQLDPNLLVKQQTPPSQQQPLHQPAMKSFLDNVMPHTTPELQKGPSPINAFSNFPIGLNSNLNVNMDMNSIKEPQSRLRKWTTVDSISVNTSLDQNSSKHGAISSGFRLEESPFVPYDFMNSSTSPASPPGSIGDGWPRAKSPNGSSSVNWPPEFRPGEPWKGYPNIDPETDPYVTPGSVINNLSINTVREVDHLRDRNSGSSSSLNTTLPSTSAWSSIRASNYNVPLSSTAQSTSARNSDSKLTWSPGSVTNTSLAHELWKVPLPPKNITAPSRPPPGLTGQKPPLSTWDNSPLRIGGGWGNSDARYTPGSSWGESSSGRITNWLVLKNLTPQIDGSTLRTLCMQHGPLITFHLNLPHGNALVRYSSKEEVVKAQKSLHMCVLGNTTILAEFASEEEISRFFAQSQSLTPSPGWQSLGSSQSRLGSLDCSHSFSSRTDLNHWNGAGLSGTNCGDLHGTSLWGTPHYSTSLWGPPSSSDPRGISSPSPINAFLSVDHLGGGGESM
UniProt Q9UPN9: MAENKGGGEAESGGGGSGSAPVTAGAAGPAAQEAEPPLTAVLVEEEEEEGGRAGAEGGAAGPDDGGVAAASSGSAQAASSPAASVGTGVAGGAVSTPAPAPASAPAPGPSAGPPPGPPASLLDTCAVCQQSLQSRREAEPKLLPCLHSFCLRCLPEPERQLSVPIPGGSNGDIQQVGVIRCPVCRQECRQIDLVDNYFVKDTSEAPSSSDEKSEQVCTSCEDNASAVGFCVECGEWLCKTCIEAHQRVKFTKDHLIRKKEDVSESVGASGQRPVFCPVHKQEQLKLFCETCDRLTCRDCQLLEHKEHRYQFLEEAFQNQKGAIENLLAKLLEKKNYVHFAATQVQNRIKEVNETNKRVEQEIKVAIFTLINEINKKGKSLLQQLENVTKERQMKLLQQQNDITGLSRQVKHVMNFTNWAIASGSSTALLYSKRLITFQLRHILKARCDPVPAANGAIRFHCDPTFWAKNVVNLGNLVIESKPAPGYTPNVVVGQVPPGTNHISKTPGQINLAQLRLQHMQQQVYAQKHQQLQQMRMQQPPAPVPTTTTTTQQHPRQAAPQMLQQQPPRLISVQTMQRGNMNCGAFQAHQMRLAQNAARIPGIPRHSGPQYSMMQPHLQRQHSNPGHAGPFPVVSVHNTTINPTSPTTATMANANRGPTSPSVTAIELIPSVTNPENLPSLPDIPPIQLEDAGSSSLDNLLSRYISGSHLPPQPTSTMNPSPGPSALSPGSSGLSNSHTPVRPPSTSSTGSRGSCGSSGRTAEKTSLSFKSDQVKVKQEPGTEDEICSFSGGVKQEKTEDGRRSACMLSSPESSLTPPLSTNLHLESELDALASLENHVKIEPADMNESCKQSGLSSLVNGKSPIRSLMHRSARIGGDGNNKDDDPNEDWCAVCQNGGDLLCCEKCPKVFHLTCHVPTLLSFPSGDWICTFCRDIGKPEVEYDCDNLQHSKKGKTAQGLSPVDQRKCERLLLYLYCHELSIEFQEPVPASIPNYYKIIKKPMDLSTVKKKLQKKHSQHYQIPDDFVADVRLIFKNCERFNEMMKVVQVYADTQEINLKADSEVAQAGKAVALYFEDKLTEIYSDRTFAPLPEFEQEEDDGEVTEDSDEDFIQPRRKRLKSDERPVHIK
UniProt O60784, whole entry, looked up: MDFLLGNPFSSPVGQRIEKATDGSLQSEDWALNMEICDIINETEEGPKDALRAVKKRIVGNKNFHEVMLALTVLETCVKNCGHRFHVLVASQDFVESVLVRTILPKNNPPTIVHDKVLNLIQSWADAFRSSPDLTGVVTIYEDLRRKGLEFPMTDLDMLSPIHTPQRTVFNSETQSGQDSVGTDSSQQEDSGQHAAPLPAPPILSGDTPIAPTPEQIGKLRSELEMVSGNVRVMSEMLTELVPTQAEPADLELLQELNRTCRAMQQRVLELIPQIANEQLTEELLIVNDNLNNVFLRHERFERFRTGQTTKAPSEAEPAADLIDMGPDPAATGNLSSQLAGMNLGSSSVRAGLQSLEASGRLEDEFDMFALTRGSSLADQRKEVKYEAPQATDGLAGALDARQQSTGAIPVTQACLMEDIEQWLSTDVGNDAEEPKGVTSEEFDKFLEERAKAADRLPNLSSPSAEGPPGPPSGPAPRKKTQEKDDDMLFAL

Compound in the first test: COc1cc(C(=O)O)ccc1NC(=O)[C@@H]1N[C@@H](CC(C)(C)C)[C@](C#N)(c2ccc(Cl)cc2F)[C@H]1c1cccc(Cl)c1F [idasanutlin]
As to the kind of experiment: log2 fold change, soluble protein after heating vs DMSO (PISA); higher = thermal stabilisation; K562 cells, 10 uM, 30 min; active = over 0.2 and 3.5 SD of the protein, either way, in both replicates (recomputed). In short, it runs like this:
(§1)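 K562 cells at 2×10^6 cells/mL were exposed to 10 μM compound for 30 min, then aliquots were heated for 3 min across 48°C-58°C, pooled, and extracted in PBS containing 0.5% NP-40 at 4°C. The supernatant after 21,000xg for 90 min was taken as soluble protein and measured by TMTpro 16plex LC-MS/MS with channel sums equalised. Thermal stability is reported relative to control samples, with values from duplicates. Fold changes are given on a log2 scale.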
On to TSC2 (UniProt P49815), for which the log2 fold change was inactive: 0.017.
The same measure, in the same setting: the result for TPD52L2 isoform 3 (UniProt O43399) reads inactive: -0.375.
In the case of TRPT1 isoform 4 (UniProt Q86TN4), the log2 fold change was inactive: -0.194.
The same measure, in the same setting: then TRIO (UniProt O75962), with inactive: -0.203.
The same measure, in the same setting: then TRIM4 (UniProt Q9C037), with inactive: -0.208; and TRADD (UniProt Q15628), with inactive: -0.095; and TRABD (UniProt Q9H4I3), with inactive: 0.167.
On to TRMT5 (UniProt Q32P41), for which the log2 fold change was inactive: 0.06.
Still for that read-out and setting: the result for TRAM2 (UniProt Q15035) reads inactive: 0.038; that for TNKS (UniProt O95271), inactive: 0.323; that for TRAF7 (UniProt Q6Q0C0), inactive: 0.033.
As for TRAF3IP1 (UniProt Q8TDR0), the log2 fold change was inactive: -0.032.
Same read-out and setting: the result for TPRA1 (UniProt Q86W33) reads inactive: -0.138; that for TRIM27 (UniProt P14373), inactive: 0.003.

Compound in another test: COc1cc(Nc2ncc3c(n2)-c2ccc(Cl)cc2C(c2c(F)cccc2OC)=NC3)ccc1C(=O)O [alisertib]
Described as above. An outline of the steps:
as §1
With TSC2 (UniProt P49815), the log2 fold change is inactive: 0.195.
Turning to TRIM29 (UniProt Q14134), the log2 fold change was inactive: -0.02.
For the target TPRG1L (UniProt Q5T0D9), the log2 fold change is inactive: 0.202.
Same read-out and setting: the result for TNIP1 (UniProt Q15025) reads inactive: -0.035; that for TPD52L2 isoform 3 (UniProt O43399), inactive: 0.05; that for TOR1AIP2 (UniProt Q9H496), inactive: 0.099.
Same read-out and setting: the result for TRPT1 isoform 4 (UniProt Q86TN4) reads inactive: -0.055.
As for TRIO (UniProt O75962), the log2 fold change is inactive: 0.015.
Same read-out and setting: the result for TRIM4 (UniProt Q9C037) reads inactive: -0.088; that for TRAPPC6A isoform 2 (UniProt O75865), inactive: -0.011; that for TRADD (UniProt Q15628), inactive: 0.278.
Still for that read-out and setting: then TRABD (UniProt Q9H4I3), with inactive: -0.109; and TNRC6A (UniProt Q8NDV7), with inactive: 0.156.
Same read-out and setting: the result for TRIM33 isoform 2 (UniProt Q9UPN9) reads inactive: 0.327; that for TRAF7 (UniProt Q6Q0C0), inactive: 0.031; that for TNXB isoform 4 (UniProt P22105), inactive: -0.874.
As to TRIP12 isoform 3 (UniProt Q14669), the log2 fold change was inactive: 0.008.
As for TOM1 (UniProt O60784), the log2 fold change is inactive: 0.103.
With TPRA1 (UniProt Q86W33), the log2 fold change is inactive: 0.117.

The values above are taken from the supplement of paper PMC10849652.
